For the assay, the target named is T1, variable region of RIFIN#1 (PF3D7_1254800, 165-274 aa) (P. falciparum) (UniProt Q8I4N9).
T1 sequence: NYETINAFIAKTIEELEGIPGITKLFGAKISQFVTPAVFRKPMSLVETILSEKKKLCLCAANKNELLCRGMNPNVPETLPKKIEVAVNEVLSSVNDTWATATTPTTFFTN
In words: ELISA.

Sequences of proteins named here, by UniProt entry; tags and fusion partners are left off. Residues count along the entry.
UniProt Q8NHL6, residues 24-461: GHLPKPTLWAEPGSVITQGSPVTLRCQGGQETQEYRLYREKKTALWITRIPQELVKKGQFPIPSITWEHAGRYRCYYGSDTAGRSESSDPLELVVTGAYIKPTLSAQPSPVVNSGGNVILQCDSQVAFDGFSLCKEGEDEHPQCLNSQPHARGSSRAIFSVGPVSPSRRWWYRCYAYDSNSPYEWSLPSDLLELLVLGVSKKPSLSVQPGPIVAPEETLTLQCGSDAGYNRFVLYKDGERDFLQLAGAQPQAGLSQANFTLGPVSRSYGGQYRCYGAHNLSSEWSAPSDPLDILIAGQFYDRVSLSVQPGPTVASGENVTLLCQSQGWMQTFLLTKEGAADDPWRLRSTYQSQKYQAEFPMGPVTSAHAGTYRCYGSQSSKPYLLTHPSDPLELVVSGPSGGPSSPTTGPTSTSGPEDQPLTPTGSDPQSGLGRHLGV

Results are given in words; binding and its absence hold for the method and conditions named. Some binding calls cover weakened binding; strength is not graded here.

Turning to “extracellular domain (ECD) of human LILRB1 (from UniProt Q8NHL6 24-461) (receptor)”, the binding result is recorded as “binds”.

The values above are taken from doi:10.1101/2024.08.08.607148 (bioRxiv, 2024).
